Test results reported in patent US11834517B2, “Branched peptides for enzymatic assembly and mitochondria drug delivery” (BRANDEIS UNIVERSITY, priority 2017, dated 2023).
For at least one compound, name, drawing or mass did not settle the structure.

Amino acid sequences for entries named in this document (tags omitted). Residues count along the entry.
UniProt O00411, 42-1230: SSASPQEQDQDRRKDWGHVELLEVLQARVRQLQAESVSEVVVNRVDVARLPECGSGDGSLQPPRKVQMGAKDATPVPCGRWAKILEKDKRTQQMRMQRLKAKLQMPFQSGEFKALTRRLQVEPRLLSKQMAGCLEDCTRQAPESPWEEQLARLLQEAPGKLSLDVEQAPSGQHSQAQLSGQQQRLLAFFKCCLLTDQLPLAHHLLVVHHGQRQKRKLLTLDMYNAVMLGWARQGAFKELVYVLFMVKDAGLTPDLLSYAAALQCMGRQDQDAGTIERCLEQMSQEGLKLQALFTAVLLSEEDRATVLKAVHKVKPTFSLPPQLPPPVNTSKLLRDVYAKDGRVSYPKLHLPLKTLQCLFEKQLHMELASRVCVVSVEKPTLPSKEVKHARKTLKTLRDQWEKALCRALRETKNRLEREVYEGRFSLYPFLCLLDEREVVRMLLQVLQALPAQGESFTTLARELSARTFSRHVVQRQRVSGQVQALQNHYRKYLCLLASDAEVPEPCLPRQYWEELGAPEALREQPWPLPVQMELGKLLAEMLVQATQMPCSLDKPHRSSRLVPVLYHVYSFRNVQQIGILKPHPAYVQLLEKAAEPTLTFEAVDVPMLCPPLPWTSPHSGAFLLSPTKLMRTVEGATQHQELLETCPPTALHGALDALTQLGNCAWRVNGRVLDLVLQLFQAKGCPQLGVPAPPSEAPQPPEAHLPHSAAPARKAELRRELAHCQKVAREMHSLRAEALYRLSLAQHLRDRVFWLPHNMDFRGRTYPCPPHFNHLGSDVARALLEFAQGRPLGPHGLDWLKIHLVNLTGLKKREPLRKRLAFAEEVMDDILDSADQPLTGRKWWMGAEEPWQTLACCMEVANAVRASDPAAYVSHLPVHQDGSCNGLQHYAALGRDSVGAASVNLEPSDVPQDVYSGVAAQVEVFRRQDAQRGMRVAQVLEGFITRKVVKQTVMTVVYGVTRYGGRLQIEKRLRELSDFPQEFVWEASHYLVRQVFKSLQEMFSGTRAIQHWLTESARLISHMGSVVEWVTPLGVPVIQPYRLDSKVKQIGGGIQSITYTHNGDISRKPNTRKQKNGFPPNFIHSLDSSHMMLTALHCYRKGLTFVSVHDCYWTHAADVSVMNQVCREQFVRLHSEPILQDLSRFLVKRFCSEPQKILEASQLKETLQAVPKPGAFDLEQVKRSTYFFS

Key:
[1] = molecular target: T1, mitochondrial RNA polymerase (Homo sapiens, UniProt O00411); assay: Inhibition of mitochondrial transgene expression in HeLa cells by rifampicin; format: cell-based; settings: rifampicin 80 μg/mL
T1 construct: endogenous in cells; host or cells: HeLa

HeLa cells = assay: Uptake and mitochondrial localization of NBD-Mito-Flag in HeLa cells in the presence of inhibitors; format: cell-based, human; settings: NBD-Mito-Flag 200 μM, with inhibitor (chloroquine 10 μM; erastin; Ndz 10 μM, 1 h pretreatment; FCCP pretreatment)
Description: FIG. 26B is a panel of confocal fluorescence images of HeLa cells incubated with NBD-Mito-Flag (200 μM) and chloroquine (10 μM). […] FIG. 26D is a panel of TEM images of mitochondria isolated from HeLa, HEK293 and HS-5 cells incubated with 200 μM Mito-Flag for 24 h. […] FIG. 26E and FIG. 26F are fluorescent images of NBD-Mito-Flag and RFP-LAMP1 in ENTK-knockdown HeLa cells. […] FIG. 26G-H are fluorescent images of the HeLa cells incubated with NBD-Mito-Flag (200 μM, 2 h) (FIG. 26G) or the mixture of virus (RFP-LAMP1) and Mito-Flag (200 μM, 24 h) (FIG. 26H) in the presence of erastin of different concentrations. […] FIG. 26I is a panel of fluorescent images of HeLa cells incubated with NBD-Mito-Flag (200 μM, 2 h) after the pretreatment by Ndz (10 μM, 1 h).
Intracellular Fluorescence Quantification: Cells were seeded in petri dishes and incubated in standard condition for 12 h before experiment. After being treated by the condition of interest, all cells were washed by PBS (3 time for 5 min). After the washing step, cells were detached from the dishes using trypsin. The trypsin was removed by centrifuge and washing with PBS. […] The intracellular fluorescence intensity was immediately determined using a DTX 880 Multimode Detector (Beckman Coulter Inc.). The experiments were repeated, and the intracellular fluorescence intensity was averaged (n>3).

Compound	mitochondrial fluorescence of HeLa cells treated by Mito-Flag mixed with baculovirus (RFP-LAMP1) or pGLO plasmid [1]	mitochondrial localization of NBD-Mito-Flag (HeLa cells)
CO[C@H]1/C=C/O[C@@]2(C)Oc3c(C)c(O)c4c(O)c(c(/C=N/N5CCN(C)CC5)c(O)c4c3C2=O)NC(=O)/C(C)=C\C=C\[C@H](C)[C@H](O)[C@@H](C)[C@@H](O)[C@@H](C)[C@H](OC(C)=O)[C@@H]1C [rifampicin]	significantly weakens the mitochondrial fluorescence	
CCOc1ccccc1-n1c(C(C)N2CCN(C(=O)COc3ccc(Cl)cc3)CC2)nc2ccccc2c1=O (centres unmarked) [Erastin]		decreases the accumulation of NBD-Mito-Flag
